According to PubChem BioAssay AID1917 (Vanderbilt High Throughput Screening Facility, 2009):
Out of some 3,000 compounds screened, about 1,600 (53%) were called active. The set was probably picked from earlier hits. Inconclusive means that the source gave no clear call. Such entries were picked first, then a sample of the others.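 How the source made its calls: active means Flux at 10 µM at least 3 SD below or above vehicle control mean in one or both replicates; inconclusive means no clear call, values can overlap the other calls; inactive means the rest.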

Chains of the proteins cited; added tags and fusions are not shown. Lines headed by an entry give the natural chain unless they say otherwise; changes in a name come on top.
UniProt P48048: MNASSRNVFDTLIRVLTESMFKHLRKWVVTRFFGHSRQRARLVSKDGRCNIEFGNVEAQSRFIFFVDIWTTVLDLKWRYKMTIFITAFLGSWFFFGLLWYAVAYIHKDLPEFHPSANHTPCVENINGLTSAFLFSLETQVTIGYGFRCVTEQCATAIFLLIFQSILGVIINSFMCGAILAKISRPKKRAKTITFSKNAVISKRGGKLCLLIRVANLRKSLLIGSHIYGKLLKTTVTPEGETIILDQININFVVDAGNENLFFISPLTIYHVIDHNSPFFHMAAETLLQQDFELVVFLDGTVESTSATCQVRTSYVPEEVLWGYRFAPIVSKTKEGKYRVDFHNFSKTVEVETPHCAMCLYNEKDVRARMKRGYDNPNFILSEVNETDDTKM

biological target: ATP-sensitive inward rectifier potassium channel 1 (Homo sapiens) (UniProt P48048); assay: retested modulators of human Kir1.1 channel – cell-based, thallium flux, duplicate, resupplied hits, confirmation (AID 1917); conditions: ROMK thallium flux, fluorescence ratio; at 10 µM; active compounds read low

Structure (SMILES)	normalized thallium flux (F/F0 slope)
CC(=O)C1(C)OC(N)=C(C#N)C(c2ccccc2)C1(C#N)C#N (stereo not given)	inconclusive: 0.0729
CCn1c(=O)n(CC)c2cc(S(=O)(=O)N3CCc4ccccc43)ccc21	inconclusive: 0.0672
COc1cccc(NC(=O)N2CCN(c3nc(-c4cccc(OC)c4)cs3)CC2)c1	active: 0.0678
COc1ccc(-c2nnnn2-c2ccc(F)cc2F)cc1	inconclusive: 0.073
C=CC[n+]1c(-c2ccc(Cl)cc2Cl)csc1Nc1ccc(NC(C)=O)cc1	inactive: 0.0787
CON1C(=O)C(=O)N(OC)C2CCCCC21 (stereo not given)	inconclusive: 0.0706
CCOc1cc(CNCCCN2CCOCC2)cc(Br)c1OCc1ccccc1Cl	inconclusive: 0.0683
CN(C)c1ccc(/C=c2\sc3n(c2=O)CCCN=3)cc1	active: 0.0544
CN=C1S/C(=C\c2cn(CC(=O)OC)c3ccccc23)C(=O)N1C	inactive: 0.0762
c1ccc2c(-c3[nH]ncc3CNCCCn3ncc4ccccc43)cccc2c1	inconclusive: 0.065
CCc1c(C)nc2ncnn2c1N1CCC(C(=O)Nc2cccc(C(C)=O)c2)CC1	inconclusive: 0.0686
CCN(CC)Cc1c(O)ccc2c([N+](=O)[O-])c(C)n(-c3ccc(OC)cc3)c12	inconclusive: 0.0697
O=C1/C(=C/c2cccnc2)SC(=S)N1CC1CCCO1 (stereo not given)	inconclusive: 0.0644
Cc1cc(/C=N/n2cnnc2)c(C)n1-c1ccc(Cl)cc1Cl	inconclusive: 0.0982
Cc1cc(/C=N/n2cnnc2)c(C)n1-c1cc(Cl)ccc1Cl	inconclusive: 0.0969
CCC(C)N1C(=O)CCC1C(=O)O (stereo not given)	inactive: 0.0799
CCCCCOC(=O)c1[nH]c2c(c1C)C(=O)CC(c1ccco1)C2 (stereo not given)	inactive: 0.0852
CCOC(=O)c1[nH]c2ccc(OC)cc2c1NC(=O)OC	inconclusive: 0.0711
CN(C)CCCN(C(=O)c1ccco1)c1nc2ccc(Cl)cc2s1	inconclusive: 0.0674
CC1CCN(CCCCOc2ccc(Br)cc2)CC1	inconclusive: 0.0704
CCSc1nccc(-c2nn(-c3ccc(C)cc3)ccc2=O)n1	inactive: 0.0877
CCOC(=O)N1CCN(c2nc(-c3ccc(F)cc3)cs2)CC1	inconclusive: 0.0692
CCCS(=O)(=O)c1nnnn1-c1cccc(OC)c1	active: 0.0462
Cc1snc(S(=O)(=O)/C(C#N)=N/Nc2ccc(C(F)(F)F)cc2)c1C#N	active: 0.102
CCN(CC)C(=O)C1CCCN(c2ccc([N+](=O)[O-])cc2/C=N/NC(=O)c2ccc([N+](=O)[O-])cc2)C1 (stereo not given)	inconclusive: 0.0685

As a working copy, part of the list above.
Structure (SMILES)	normalized thallium flux (F/F0 slope)
COc1ccc(-c2nnnn2-c2ccc(F)cc2F)cc1	inconclusive: 0.073
C=CC[n+]1c(-c2ccc(Cl)cc2Cl)csc1Nc1ccc(NC(C)=O)cc1	inactive: 0.0787
CON1C(=O)C(=O)N(OC)C2CCCCC21 (stereo not given)	inconclusive: 0.0706
CCOc1cc(CNCCCN2CCOCC2)cc(Br)c1OCc1ccccc1Cl	inconclusive: 0.0683
CN(C)c1ccc(/C=c2\sc3n(c2=O)CCCN=3)cc1	active: 0.0544
CN=C1S/C(=C\c2cn(CC(=O)OC)c3ccccc23)C(=O)N1C	inactive: 0.0762
